Test results: US20050142581A1, “Microrna as ligands and target molecules” (priority 2003, published 2005)
Some entries share one result that the patent states for a list of compounds. Oligonucleotides are written 5' to 3', each unit as a sugar letter and its base; * is a phosphorothioate linkage, no mark a phosphodiester; rarer units and linkages stand in square brackets, end groups in braces. Plain capitals give the bases only. e = 2'-O-(2-methoxyethyl) (MOE); [5mC] = 5-methylcytosine; d = 2'-deoxy (DNA)

Tested on: human CD40 mRNA
Test: Inhibition of CD40 mRNA levels by oligonucleotides (real-time RT-PCR)
Type: cell-based
Conditions: phosphorothioate 2′-MOE gapmers, 18 nucleotides (Table 15); averaged from three experiments
Description: When cells reach about 80% confluency, they are treated with oligonucleotide. For cells grown in 96-well plates, wells are washed once with 200 μl Opti-MEM-1 reduced-serum medium (Life Technologies) and then treated with 130 μl of Opti-MEM-1 containing 3.75 μg/ml LIPOFECTIN (Life Technologies) and the desired oligonucleotide at a final concentration of 150 nM. After 4 hours of treatment, the medium was replaced with fresh medium. Cells were harvested 16 hours after oligonucleotide treatment.
Poly(A)+ mRNA was isolated according to Miura et al. (Clin. Chem., 1996, 42, 1758). Briefly, for cells grown on 96-well plates, growth medium was removed from the cells and each well was washed with 200 ul cold PBS. 60 ul lysis buffer (10 mM Tris-HCl, pH 7.6, 1 mM EDTA, 0.5 M NaCl, 0.5% NP-40, 20 mM vanadyl-ribonucleoside complex) was added to each well, the plate was gently agitated and then incubated at room temperature for five minutes. 55 ul of lysate was transferred to Oligo d(T) coated 96 well plates (AGCT Inc., Irvine, Calif.). Plates were incubated for 60 minutes at room temperature, washed 3 times with 200 ul of wash buffer (10 mM Tris-HCl pH 7.6, 1 mM EDTA, 0.3 M NaCl). After the final wash, the plate was blotted on paper towels to remove excess wash buffer and then air-dried for 5 minutes. 60 ul of elution buffer (5 mM Tris-HCl pH 7.6), preheated to 70° C. was added to each well, the plate was incubated on a 90° hot plate for 5 minutes, and the eluate then transferred to a fresh 96 well plate. Cells grown on 100 mm or other standard plates may be treated similarly, using appropriate volumes of all solutions.
Quantitation of CD40 mRNA levels was determined by real-time PCR (RT-PCR) using the ABI PRISM 7700 Sequence Detection System (PE-Applied Biosystems, Foster City, Calif.) according to manufacturer's instructions. This is a closed-tube, non-gel-based, fluorescence detection system which allows high-throughput quantitation of polymerase chain reaction (PCR) products in real-time.
As opposed to standard PCR, in which amplification products are quantitated after the PCR is completed, products in RT-PCR are quantitated as they accumulate. This is accomplished by including in the PCR reaction an oligonucleotide probe that anneals specifically between the forward and reverse PCR primers, and contains two fluorescent dyes. A reporter dye (e.g., JOE or FAM, PE-Applied Biosystems, Foster City, Calif.) is attached to the 5′ end of the probe and a quencher dye (e.g., TAMRA, PE-Applied Biosystems, Foster City, Calif.) is attached to the 3′ end of the probe. When the probe and dyes are intact, reporter dye emission is quenched by the proximity of the 3′ quencher dye. During amplification, annealing of the probe to the target sequence creates a substrate that can be cleaved by the 5′-exonuclease activity of Taq polymerase.
With each cycle, additional reporter dye molecules are cleaved from their respective probes, and the fluorescence intensity is monitored at regular (six-second) intervals by laser optics built into the ABI PRISM 7700 Sequence Detection System. In each assay, a series of parallel reactions containing serial dilutions of mRNA from untreated control samples generates a standard curve that is used to quantitate the percent inhibition after antisense oligonucleotide treatment of test samples.
RT-PCR reagents were obtained from PE-Applied Biosystems, Foster City, Calif. RT-PCR reactions were carried out by adding 25 ul PCR cocktail (1× Taqman buffer A, 5.5 mM MgCl2, 300 uM each of dATP, dCTP and dGTP, 600 uM of dUTP, 100 nM each of forward primer, reverse primer, and probe, 20 U RNAse inhibitor, 1.25 units AmpliTaq Gold, and 12.5 U MuLV reverse transcriptase) to 96 well plates containing 25 ul poly(A) mRNA solution. […]

Q: Which “inhibition of CD40 expression” value does the source give for “SEQ ID NO:204: 18-nucleotide phosphorothioate 2′-MOE gapmer targeted to human CD40 mRNA (Table 15) (eG*e[5mC]*eT*e[5mC]*dG*dC*dA*dG*dA*dT*dG*dG*dT*dA*eT*e[5mC]*eA*eG)” here?
A: at least 50%

Q: How did the “inhibition of CD40 expression” value turn out when “SEQ ID NO:185: 18-nucleotide phosphorothioate 2′-MOE gapmer targeted to human CD40 mRNA (Table 15) (e[5mC]*eT*eG*eG*dT*dG*dG*dC*dA*dG*dT*dG*dT*dG*eT*e[5mC]*eT*e[5mC])” was run?
A: at least 50%

Q: With “SEQ ID NO:167: 18-nucleotide phosphorothioate 2′-MOE gapmer targeted to human CD40 mRNA (Table 15) (eG*eA*eT*eG*dG*dA*dC*dA*dG*dC*dG*dG*dT*dC*eA*eG*e[5mC]*eA)” as the substance, how does the “inhibition of CD40 expression” value read?
A: at least 50%

Q: For “SEQ ID NO:215: 18-nucleotide phosphorothioate 2′-MOE gapmer targeted to human CD40 mRNA (Table 15) (e[5mC]*eA*eG*eG*dT*dC*dT*dT*dT*dG*dG*dT*dC*dT*e[5mC]*eA*e[5mC]*eA)”, which “inhibition of CD40 expression” value is on record?
A: at least 50%

Q: How did the “inhibition of CD40 expression” value turn out when “SEQ ID NO:198: 18-nucleotide phosphorothioate 2′-MOE gapmer targeted to human CD40 mRNA (Table 15) (eT*eG*e[5mC]*eA*dG*dG*dA*dC*dA*dC*dA*dG*dC*dT*e[5mC]*eT*e[5mC]*eA)” was run?
A: at least 50%

Q: With “SEQ ID NO:193: 18-nucleotide phosphorothioate 2′-MOE gapmer targeted to human CD40 mRNA (Table 15) (eA*e[5mC]*eA*eG*dG*dT*dG*dC*dA*dG*dA*dT*dG*dG*eT*eG*eT*e[5mC])” as the substance, how does the “inhibition of CD40 expression” value read?
A: at least 50%

Q: Which “inhibition of CD40 expression” value does the source give for “SEQ ID NO:190: 18-nucleotide phosphorothioate 2′-MOE gapmer targeted to human CD40 mRNA (Table 15) (e[5mC]*eT*eG*eA*dG*dG*dT*dG*dC*dC*dC*dT*dT*dC*eT*eG*e[5mC]*eT)” here?
A: at least 50%

Q: With “SEQ ID NO:199: 18-nucleotide phosphorothioate 2′-MOE gapmer targeted to human CD40 mRNA (Table 15) (eG*eA*eG*e[5mC]*dG*dG*dT*dG*dC*dA*dG*dG*dA*dC*eA*e[5mC]*eA*eG)” as the substance, how does the “inhibition of CD40 expression” value read?
A: at least 50%

Q: For “SEQ ID NO:171: 18-nucleotide phosphorothioate 2′-MOE gapmer targeted to human CD40 mRNA (Table 15) (eG*e[5mC]*eA*eG*dT*dG*dG*dG*dT*dG*dG*dT*dT*dC*eT*eG*eG*eA)”, which “inhibition of CD40 expression” value is on record?
A: at least 50%

Q: How did the “inhibition of CD40 expression” value turn out when “SEQ ID NO:191: 18-nucleotide phosphorothioate 2′-MOE gapmer targeted to human CD40 mRNA (Table 15) (eG*eT*eG*eT*dC*dT*dG*dT*dT*dT*dC*dT*dG*dA*eG*eG*eT*eG)” was run?
A: at least 50%

Q: How did the “inhibition of CD40 expression” value turn out when “SEQ ID NO:217: 18-nucleotide phosphorothioate 2′-MOE gapmer targeted to human CD40 mRNA (Table 15) (eG*eT*eT*eT*dG*dT*dG*dC*dC*dT*dG*dC*dC*dT*eG*eT*eT*eG)” was run?
A: at least 50%

Q: With “SEQ ID NO:164: 18-nucleotide phosphorothioate 2′-MOE gapmer targeted to human CD40 mRNA (Table 15) (eG*e[5mC]*eA*eA*dG*dC*dA*dG*dC*dC*dC*dC*dA*dG*eA*eG*eG*eA)” as the substance, how does the “inhibition of CD40 expression” value read?
A: at least 50%

Q: “SEQ ID NO:210: 18-nucleotide phosphorothioate 2′-MOE gapmer targeted to human CD40 mRNA (Table 15) (eG*e[5mC]*eA*eG*dA*dT*dG*dA*dC*dA*dC*dA*dT*dT*eG*eG*eA*eG)” was tested. Which “inhibition of CD40 expression” value did it give?
A: at least 50%

Q: How did the “inhibition of CD40 expression” value turn out when “SEQ ID NO:223: 18-nucleotide phosphorothioate 2′-MOE gapmer targeted to human CD40 mRNA (Table 15) (eG*eG*eG*eA*dT*dC*dA*dC*dC*dA*dC*dC*dA*dG*eG*eG*e[5mC]*eT)” was run?
A: at least 50%

Q: “SEQ ID NO:231: 18-nucleotide phosphorothioate 2′-MOE gapmer targeted to human CD40 mRNA (Table 15) (eG*eG*eA*eG*dC*dC*dA*dG*dG*dA*dA*dG*dA*dT*e[5mC]*eG*eT*e[5mC])” was tested. Which “inhibition of CD40 expression” value did it give?
A: at least 50%

Q: “SEQ ID NO:211: 18-nucleotide phosphorothioate 2′-MOE gapmer targeted to human CD40 mRNA (Table 15) (eT*e[5mC]*eG*eA*dA*dA*dG*dC*dA*dG*dA*dT*dG*dA*e[5mC]*eA*e[5mC]*eA)” was tested. Which “inhibition of CD40 expression” value did it give?
A: at least 50%

Q: “SEQ ID NO:169: 18-nucleotide phosphorothioate 2′-MOE gapmer targeted to human CD40 mRNA (Table 15) (eG*eG*eT*eG*dG*dT*dT*dC*dT*dG*dG*dA*dT*dG*eG*eA*e[5mC]*eA)” was tested. Which “inhibition of CD40 expression” value did it give?
A: at least 50%

Q: How did the “inhibition of CD40 expression” value turn out when “SEQ ID NO:170: 18-nucleotide phosphorothioate 2′-MOE gapmer targeted to human CD40 mRNA (Table 15) (eG*eT*eG*eG*dG*dT*dG*dG*dT*dT*dC*dT*dG*dG*eA*eT*eG*eG)” was run?
A: at least 50%

Q: For “SEQ ID NO:189: 18-nucleotide phosphorothioate 2′-MOE gapmer targeted to human CD40 mRNA (Table 15) (eG*eG*eT*eG*dC*dC*dC*dT*dT*dC*dT*dG*dC*dT*eG*eG*eA*e[5mC])”, which “inhibition of CD40 expression” value is on record?
A: at least 50%

Q: “SEQ ID NO:178: 18-nucleotide phosphorothioate 2′-MOE gapmer targeted to human CD40 mRNA (Table 15) (eG*eT*eG*e[5mC]*dA*dG*dT*dC*dA*dC*dT*dC*dA*dC*e[5mC]*eA*eG*eT)” was tested. Which “inhibition of CD40 expression” value did it give?
A: at least 50%
